Earlier results on 2 molecules are cited in patent publication US20230365624A1, “NOVEL ANGIOTENSIN I-CONVERTING ENZYME (ACE) INHIBITORY PEPTIDES” (Thai Union Group Public Company Limited, priority 2020, published 2023).

Protein sequences, listed by entry. Tags and fused reporters are not part of them. Residues count along the entry.
UniProt P12821, 30-1306 limits assumed: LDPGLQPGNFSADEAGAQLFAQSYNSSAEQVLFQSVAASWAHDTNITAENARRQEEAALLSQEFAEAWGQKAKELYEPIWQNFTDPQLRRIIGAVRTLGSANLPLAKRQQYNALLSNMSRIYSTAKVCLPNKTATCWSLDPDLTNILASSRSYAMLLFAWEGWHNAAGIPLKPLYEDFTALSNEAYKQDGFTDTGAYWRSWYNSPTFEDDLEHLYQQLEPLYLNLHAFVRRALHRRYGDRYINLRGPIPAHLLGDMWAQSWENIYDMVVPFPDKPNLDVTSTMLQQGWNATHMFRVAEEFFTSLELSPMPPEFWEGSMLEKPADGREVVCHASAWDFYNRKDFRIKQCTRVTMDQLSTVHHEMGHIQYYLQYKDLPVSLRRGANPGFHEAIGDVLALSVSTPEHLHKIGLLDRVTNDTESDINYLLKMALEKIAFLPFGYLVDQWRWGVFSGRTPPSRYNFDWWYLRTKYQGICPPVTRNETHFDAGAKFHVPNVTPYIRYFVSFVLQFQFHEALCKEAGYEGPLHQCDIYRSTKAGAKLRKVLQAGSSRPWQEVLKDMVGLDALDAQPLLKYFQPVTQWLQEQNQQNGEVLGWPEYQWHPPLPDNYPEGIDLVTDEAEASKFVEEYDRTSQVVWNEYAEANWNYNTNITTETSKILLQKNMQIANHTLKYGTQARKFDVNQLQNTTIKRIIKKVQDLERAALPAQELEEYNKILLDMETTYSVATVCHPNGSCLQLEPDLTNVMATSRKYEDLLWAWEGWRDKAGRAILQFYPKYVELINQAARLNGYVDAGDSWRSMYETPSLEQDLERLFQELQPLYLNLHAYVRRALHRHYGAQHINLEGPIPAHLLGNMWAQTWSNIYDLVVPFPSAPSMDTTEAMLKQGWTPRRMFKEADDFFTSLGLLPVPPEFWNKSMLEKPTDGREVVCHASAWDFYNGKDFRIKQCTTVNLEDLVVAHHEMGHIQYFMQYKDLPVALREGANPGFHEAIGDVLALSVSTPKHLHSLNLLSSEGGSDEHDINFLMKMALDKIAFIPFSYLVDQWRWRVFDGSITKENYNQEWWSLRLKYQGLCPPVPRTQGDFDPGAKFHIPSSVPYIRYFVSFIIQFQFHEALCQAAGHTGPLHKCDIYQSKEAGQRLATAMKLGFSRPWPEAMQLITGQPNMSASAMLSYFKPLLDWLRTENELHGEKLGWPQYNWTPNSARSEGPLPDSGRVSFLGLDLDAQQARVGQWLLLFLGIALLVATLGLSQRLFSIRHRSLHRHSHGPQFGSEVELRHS

Structures are written as SMILES. The match of structure and compound is tentative.

For this data set, the target named is ACE (Homo sapiens, UniProt P12821). Conditions: read-out: IC50 (ACE inhibition); Wu et al. (2008); Balti et al. (2010); cited from earlier work.

On to `N[C@@H](CS)C(=O)N[C@@H](Cc1ccccc1)C(=O)O`, for which the IC50 is 1960 nM. For the molecule `N[C@@H](Cc1ccccc1)C(=O)N[C@@H](CCC(=O)O)C(=O)O`, the IC50 was 1450 nM.

As a reminder, the IC50 is the point on the concentration scale where inhibition reaches its midpoint.
